Structures can show the parent of a compound that is named as a salt. Some of the results follow. The calls rarely recur for the same compound in another form.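 Kinases were expressed as nanoluciferase fusions in K562 cells and luminescence was read every 4 h between 2 and 18 h as percent of control, DMSO set to 100% and a positive control to 0%. A time point counts as decreased when the signal drops significantly (2 sigma). The hit call is the authors' own, does not follow from the count of time points alone, and its rule is not shown.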
Assays:
Test in all cases: kinase-Nluc reporter destabilization hit call (1 = scored as downregulated) (binary); higher = compound decreases kinase abundance
Conditions in all cases: K562; 2-18 h
[1] = biological target: ABL1 (UniProt P00519)
[2] = biological target: AKT1 (UniProt P31749)
[3] = biological target: ALK (UniProt Q9UM73)
[4] = biological target: ARAF (UniProt P10398)
[5] = biological target: AURKA (UniProt O14965)
[6] = biological target: AURKB (UniProt Q96GD4)
[7] = biological target: AURKC (UniProt Q9UQB9)
[8] = biological target: BLK (UniProt P51451)
[9] = biological target: BMX (UniProt P51813)
[10] = biological target: BRAF (UniProt P15056)

Protein sequences, listed by entry. Tags and fused reporters are not part of them. Lines headed by an entry give the natural chain unless they say otherwise; changes in a name come on top.
UniProt P00519, whole entry: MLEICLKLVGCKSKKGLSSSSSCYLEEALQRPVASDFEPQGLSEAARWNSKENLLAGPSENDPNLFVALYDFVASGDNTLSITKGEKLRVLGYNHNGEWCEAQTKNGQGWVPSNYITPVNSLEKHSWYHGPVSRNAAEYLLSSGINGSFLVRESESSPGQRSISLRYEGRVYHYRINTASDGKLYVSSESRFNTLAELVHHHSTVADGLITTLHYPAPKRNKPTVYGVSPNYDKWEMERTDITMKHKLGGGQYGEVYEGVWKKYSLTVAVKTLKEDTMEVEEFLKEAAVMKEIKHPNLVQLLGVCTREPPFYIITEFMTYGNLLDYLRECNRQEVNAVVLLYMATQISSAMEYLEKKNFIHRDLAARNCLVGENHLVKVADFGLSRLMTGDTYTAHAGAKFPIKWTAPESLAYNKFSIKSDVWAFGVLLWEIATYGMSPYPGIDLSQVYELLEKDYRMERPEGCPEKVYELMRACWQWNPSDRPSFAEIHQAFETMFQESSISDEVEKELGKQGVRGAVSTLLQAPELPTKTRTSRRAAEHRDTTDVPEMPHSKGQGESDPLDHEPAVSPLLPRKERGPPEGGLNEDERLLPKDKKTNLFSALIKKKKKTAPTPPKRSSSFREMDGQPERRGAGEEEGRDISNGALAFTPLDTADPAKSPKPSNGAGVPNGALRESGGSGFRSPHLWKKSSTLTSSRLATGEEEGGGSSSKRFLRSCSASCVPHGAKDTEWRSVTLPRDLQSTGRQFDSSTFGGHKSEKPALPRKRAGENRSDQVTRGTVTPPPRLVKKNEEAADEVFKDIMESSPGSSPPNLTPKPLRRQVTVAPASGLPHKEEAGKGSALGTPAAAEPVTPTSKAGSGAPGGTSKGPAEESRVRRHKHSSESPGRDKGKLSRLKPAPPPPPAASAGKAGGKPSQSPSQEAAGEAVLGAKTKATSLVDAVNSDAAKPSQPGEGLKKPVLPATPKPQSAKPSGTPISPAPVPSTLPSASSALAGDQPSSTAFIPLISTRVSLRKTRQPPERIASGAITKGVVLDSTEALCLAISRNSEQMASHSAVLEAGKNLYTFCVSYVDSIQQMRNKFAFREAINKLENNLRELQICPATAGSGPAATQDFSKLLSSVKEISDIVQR
UniProt P31749: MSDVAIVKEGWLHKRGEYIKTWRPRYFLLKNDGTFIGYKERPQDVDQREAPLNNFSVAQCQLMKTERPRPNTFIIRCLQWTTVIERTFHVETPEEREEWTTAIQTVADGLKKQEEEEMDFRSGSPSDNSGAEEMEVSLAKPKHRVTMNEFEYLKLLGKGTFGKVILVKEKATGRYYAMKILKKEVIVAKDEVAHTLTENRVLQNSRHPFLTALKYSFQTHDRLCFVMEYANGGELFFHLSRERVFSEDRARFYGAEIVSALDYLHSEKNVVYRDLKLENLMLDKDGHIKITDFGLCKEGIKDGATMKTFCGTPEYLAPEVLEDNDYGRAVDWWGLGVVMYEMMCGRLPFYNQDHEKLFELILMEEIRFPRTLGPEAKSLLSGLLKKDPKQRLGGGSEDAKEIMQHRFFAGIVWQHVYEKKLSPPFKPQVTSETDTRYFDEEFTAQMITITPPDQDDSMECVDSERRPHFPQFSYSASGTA
UniProt Q9UM73: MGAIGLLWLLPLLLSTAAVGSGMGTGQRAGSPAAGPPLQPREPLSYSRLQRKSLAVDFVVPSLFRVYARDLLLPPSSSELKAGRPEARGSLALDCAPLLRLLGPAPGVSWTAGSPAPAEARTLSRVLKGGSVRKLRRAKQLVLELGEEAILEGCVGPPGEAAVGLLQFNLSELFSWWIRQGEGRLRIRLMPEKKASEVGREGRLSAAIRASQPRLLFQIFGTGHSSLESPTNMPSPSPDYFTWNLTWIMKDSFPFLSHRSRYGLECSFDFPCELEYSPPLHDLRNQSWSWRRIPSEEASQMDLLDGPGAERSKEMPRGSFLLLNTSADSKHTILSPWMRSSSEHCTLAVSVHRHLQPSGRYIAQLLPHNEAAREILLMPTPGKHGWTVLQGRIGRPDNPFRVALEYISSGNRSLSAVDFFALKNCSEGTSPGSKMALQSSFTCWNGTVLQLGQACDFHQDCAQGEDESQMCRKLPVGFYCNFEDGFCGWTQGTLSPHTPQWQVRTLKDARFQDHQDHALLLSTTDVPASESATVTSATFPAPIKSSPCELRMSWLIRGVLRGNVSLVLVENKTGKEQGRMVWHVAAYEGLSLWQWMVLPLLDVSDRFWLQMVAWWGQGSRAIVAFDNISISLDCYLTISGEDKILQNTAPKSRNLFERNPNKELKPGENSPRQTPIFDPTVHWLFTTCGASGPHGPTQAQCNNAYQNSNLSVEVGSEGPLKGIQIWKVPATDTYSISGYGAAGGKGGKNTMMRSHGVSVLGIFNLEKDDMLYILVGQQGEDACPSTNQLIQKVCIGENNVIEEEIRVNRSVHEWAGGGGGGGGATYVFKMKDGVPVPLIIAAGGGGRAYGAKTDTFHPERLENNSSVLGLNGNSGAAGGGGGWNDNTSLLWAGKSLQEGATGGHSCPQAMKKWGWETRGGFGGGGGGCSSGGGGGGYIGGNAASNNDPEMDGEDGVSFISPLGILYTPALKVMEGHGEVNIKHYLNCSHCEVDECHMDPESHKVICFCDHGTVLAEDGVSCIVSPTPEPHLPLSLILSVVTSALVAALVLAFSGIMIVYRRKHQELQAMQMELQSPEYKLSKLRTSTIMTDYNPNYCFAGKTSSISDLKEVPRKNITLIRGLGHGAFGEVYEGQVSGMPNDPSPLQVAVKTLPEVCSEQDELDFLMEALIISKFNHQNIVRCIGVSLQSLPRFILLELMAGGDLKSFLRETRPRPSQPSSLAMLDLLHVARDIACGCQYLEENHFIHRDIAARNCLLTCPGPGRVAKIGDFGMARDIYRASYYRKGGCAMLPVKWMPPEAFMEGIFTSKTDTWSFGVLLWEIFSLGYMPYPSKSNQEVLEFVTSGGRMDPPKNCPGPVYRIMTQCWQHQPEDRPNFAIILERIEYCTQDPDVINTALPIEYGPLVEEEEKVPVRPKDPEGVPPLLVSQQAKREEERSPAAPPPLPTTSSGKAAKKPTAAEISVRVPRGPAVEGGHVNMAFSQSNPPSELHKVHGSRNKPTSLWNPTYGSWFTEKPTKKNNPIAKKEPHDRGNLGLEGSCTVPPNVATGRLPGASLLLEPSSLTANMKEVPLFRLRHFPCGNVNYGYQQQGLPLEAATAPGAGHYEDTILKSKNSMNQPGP
UniProt P10398: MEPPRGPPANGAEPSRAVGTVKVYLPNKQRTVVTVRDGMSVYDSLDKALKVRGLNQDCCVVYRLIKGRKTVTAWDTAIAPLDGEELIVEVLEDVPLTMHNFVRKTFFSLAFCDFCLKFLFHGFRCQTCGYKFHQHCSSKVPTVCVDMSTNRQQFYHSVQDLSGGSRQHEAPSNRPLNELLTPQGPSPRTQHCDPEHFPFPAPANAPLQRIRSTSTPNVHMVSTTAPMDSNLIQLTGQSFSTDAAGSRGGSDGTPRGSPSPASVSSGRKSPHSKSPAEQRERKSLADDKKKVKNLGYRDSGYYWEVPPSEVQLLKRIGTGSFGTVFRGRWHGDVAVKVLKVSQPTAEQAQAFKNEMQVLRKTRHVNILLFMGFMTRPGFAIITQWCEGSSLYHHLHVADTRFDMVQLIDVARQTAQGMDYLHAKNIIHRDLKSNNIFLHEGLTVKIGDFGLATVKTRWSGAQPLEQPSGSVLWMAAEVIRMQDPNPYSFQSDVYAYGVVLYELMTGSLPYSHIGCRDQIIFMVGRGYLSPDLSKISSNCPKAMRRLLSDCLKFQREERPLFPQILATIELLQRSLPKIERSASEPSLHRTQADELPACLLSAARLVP
UniProt O14965: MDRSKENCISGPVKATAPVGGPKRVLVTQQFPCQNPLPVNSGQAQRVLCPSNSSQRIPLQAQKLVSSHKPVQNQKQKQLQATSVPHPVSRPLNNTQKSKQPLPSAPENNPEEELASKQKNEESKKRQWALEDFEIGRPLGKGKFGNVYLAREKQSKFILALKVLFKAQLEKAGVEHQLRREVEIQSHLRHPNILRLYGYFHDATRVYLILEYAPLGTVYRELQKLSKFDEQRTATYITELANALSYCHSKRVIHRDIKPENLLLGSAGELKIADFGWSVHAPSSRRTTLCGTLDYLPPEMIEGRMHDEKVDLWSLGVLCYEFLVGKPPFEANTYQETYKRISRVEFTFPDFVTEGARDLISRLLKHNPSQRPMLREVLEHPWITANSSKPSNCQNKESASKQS
UniProt Q96GD4, whole entry: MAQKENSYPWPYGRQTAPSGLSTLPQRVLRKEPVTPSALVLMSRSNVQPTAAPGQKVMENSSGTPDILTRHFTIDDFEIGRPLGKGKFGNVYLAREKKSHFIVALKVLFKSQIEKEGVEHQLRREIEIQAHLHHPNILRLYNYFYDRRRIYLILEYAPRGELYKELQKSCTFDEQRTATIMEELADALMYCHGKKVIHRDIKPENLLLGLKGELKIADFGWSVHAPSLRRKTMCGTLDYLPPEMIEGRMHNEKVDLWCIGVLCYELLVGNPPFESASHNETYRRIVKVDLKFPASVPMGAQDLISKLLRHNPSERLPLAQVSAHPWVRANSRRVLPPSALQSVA
UniProt Q9UQB9: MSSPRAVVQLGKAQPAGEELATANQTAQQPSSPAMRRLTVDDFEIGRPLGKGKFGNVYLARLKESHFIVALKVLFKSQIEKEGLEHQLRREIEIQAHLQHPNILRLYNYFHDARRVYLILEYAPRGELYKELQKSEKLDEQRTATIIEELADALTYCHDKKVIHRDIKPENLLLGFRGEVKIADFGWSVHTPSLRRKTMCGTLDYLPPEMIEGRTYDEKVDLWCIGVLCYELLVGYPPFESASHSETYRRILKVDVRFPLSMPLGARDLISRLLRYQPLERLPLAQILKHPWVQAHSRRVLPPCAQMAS
UniProt P51451: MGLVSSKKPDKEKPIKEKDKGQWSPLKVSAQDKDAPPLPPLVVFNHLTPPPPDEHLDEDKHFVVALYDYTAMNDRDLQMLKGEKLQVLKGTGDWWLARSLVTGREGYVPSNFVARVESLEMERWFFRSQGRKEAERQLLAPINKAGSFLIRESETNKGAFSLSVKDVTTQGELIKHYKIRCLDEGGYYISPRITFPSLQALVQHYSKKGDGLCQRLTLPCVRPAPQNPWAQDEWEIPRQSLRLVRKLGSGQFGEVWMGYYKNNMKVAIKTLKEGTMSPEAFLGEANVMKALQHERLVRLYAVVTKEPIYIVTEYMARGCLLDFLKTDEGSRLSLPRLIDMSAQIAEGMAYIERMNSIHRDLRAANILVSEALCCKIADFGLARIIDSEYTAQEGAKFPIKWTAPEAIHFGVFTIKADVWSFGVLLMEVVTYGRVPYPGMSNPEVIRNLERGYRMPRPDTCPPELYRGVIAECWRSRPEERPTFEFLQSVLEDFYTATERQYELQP
UniProt P51813: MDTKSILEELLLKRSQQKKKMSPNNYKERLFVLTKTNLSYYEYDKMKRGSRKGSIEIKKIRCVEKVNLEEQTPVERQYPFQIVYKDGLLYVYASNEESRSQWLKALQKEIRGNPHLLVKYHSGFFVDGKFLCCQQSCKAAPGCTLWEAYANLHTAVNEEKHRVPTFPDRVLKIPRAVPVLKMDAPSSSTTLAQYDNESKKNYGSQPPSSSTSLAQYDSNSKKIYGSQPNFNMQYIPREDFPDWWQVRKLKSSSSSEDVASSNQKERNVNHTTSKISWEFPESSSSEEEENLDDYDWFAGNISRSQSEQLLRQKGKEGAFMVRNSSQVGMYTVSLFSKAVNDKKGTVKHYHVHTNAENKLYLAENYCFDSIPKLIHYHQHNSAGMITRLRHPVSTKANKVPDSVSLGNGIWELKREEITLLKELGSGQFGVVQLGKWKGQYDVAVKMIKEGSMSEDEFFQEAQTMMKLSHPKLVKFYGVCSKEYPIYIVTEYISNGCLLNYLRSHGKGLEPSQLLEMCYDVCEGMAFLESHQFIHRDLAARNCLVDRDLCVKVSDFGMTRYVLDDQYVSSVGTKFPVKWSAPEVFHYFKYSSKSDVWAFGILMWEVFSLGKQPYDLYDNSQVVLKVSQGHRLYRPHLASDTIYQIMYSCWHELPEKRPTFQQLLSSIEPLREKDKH

Row | Compound | kinase-Nluc reporter destabilization hit call [1] | kinase-Nluc reporter destabilization hit call [2] | kinase-Nluc reporter destabilization hit call [3] | kinase-Nluc reporter destabilization hit call [4] | kinase-Nluc reporter destabilization hit call [5] | kinase-Nluc reporter destabilization hit call [6] | kinase-Nluc reporter destabilization hit call [7] | kinase-Nluc reporter destabilization hit call [8] | kinase-Nluc reporter destabilization hit call [9] | kinase-Nluc reporter destabilization hit call [10]
1 | COc1ccc(C(=C2C(=O)Nc3ccccc32)c2ccc(OC)cc2)cc1 (10 µM) | inactive: 0 | inactive: 0 | inactive: 0 | inactive: 0 | inactive: 0 | inactive: 0 | inactive: 0 | inactive: 0 | inactive: 0 | inactive: 0
2 | O=C(/C=C/c1ccc(O)c(O)c1)OC1CC(OC(=O)/C=C/c2ccc(O)c(O)c2)(C(=O)O)CC(O)C1O (stereo not given) [1,3-Dicaffeoylquinic acid] (10 µM) | inactive: 0 | inactive: 0 | inactive: 0 | inactive: 0 | inactive: 0 | inactive: 0 | inactive: 0 | inactive: 0 | inactive: 0 | inactive: 0
3 | CN1C(=O)C(Cc2c[nH]c3ccccc23)NC1=S (stereo not given) [Necrostatin-1] (10 µM) | inactive: 0 | inactive: 0 | inactive: 0 | inactive: 0 | inactive: 0 | inactive: 0 | inactive: 0 | inactive: 0 | inactive: 0 | inactive: 0
4 | Cc1cc([C@H](C)Nc2ccccc2)c2oc(N3CCOCC3)cc(=O)c2c1 (10 µM) | inactive: 0 | inactive: 0 | inactive: 0 | inactive: 0 | inactive: 0 | inactive: 0 | inactive: 0 | inactive: 0 | inactive: 0 | inactive: 0
5 | CNCc1ccccc1-c1csc([C@@H](C)Nc2nc(C)nc3cc(OC)c(OC)cc23)c1 (2.5 µM) | inactive: 0 | inactive: 0 | inactive: 0 | inactive: 0 | inactive: 0 | inactive: 0 | inactive: 0 | inactive: 0 | inactive: 0 | inactive: 0
6 | CC1=C2C(=O)O[C@@H](c3ccoc3)[C@]2(C)CCC1 [Fraxinellone] (10 µM) | inactive: 0 | inactive: 0 | inactive: 0 | inactive: 0 | inactive: 0 | inactive: 0 | inactive: 0 | inactive: 0 | inactive: 0 | inactive: 0
7 | c1cc2c(cc1O[C@H]1OC[C@H]3[C@@H]1CO[C@@H]3c1ccc3c(c1)OCO3)OCO2 [Sesamolin] (10 µM) | inactive: 0 | inactive: 0 | inactive: 0 | inactive: 0 | inactive: 0 | inactive: 0 | inactive: 0 | inactive: 0 | inactive: 0 | inactive: 0
8 | CS(=O)(=O)c1ccc(-c2noc(C(F)(F)F)c2-c2ccccc2)cc1 (10 µM) | inactive: 0 | inactive: 0 | inactive: 0 | inactive: 0 | inactive: 0 | inactive: 0 | inactive: 0 | inactive: 0 | inactive: 0 | inactive: 0
9 | O=C1NC(=O)C(=Cc2ccc(-c3ccc(F)cc3)o2)S1 (stereo in doubt) (10 µM) | inactive: 0 | inactive: 0 | inactive: 0 | inactive: 0 | inactive: 0 | inactive: 0 | inactive: 0 | inactive: 0 | inactive: 0 | inactive: 0
10 | CC(C)=CCC[C@](C)(O[C@@H]1O[C@H](CO)[C@@H](O)[C@H](O)[C@H]1O)[C@H]1CC[C@]2(C)[C@@H]1[C@H](O)C[C@@H]1[C@@]3(C)CC[C@H](O)C(C)(C)[C@@H]3[C@@H](O[C@@H]3O[C@H](CO)[C@@H](O)[C@H](O)[C@H]3O[C@@H]3O[C@@H](C)[C@H](O)[C@@H](O)[C@H]3O)C[C@]12C [Ginsenoside Re] (10 µM) | inactive: 0 | inactive: 0 | inactive: 0 | inactive: 0 | inactive: 0 | inactive: 0 | inactive: 0 | inactive: 0 | inactive: 0 | inactive: 0
11 | Nc1ncc(-c2cccc(N3CCNCC3)c2)cc1C(=O)Nc1ccncc1 [PKC-iota inhibitor 1] (10 µM) | inactive: 0 | inactive: 0 | inactive: 0 | inactive: 0 | inactive: 0 | inactive: 0 | inactive: 0 | inactive: 0 | inactive: 0 | inactive: 0
12 | COc1ccc2[nH]cc(/C=C3\C(=O)Nc4ccc(NC(=O)CCN5CCCCC5)cc43)c2c1 (2.5 µM) | inactive: 0 | inactive: 0 | inactive: 0 | inactive: 0 | inactive: 0 | inactive: 0 | inactive: 0 | inactive: 0 | inactive: 0 | inactive: 0
13 | Cn1c(=O)c(F)c(Nc2ccc(I)cc2F)c2c(=O)n(C[C@@H](O)CO)cnc21 (10 µM) | inactive: 0 | inactive: 0 | inactive: 0 | inactive: 0 | inactive: 0 | inactive: 0 | inactive: 0 | inactive: 0 | inactive: 0 | inactive: 0
14 | COc1cc(F)c(F)c(Nc2ccc(I)cc2F)c1NS(=O)(=O)C1(C[C@H](O)CO)CC1 [Refametinib] (10 µM) | inactive: 0 | inactive: 0 | inactive: 0 | inactive: 0 | inactive: 0 | inactive: 0 | inactive: 0 | inactive: 0 | inactive: 0 | inactive: 0
15 | O=C1NC(=O)/C(=C/c2ccc3c(c2)OC(F)(F)O3)S1 (10 µM) | inactive: 0 | inactive: 0 | inactive: 0 | inactive: 0 | inactive: 0 | inactive: 0 | inactive: 0 | inactive: 0 | inactive: 0 | inactive: 0
16 | CCOc1ccc(C(=O)Nc2ncc([N+](=O)[O-])s2)cc1 (10 µM) | inactive: 0 | inactive: 0 | inactive: 0 | inactive: 0 | inactive: 0 | inactive: 0 | inactive: 0 | inactive: 0 | inactive: 0 | inactive: 0
17 | CCN1CCN(Cc2ccc(Nc3ncc(F)c(-c4cc(F)c5nc(CO)n(C(C)C)c5c4)n3)nc2)CC1 [Abemaciclib metabolite M20] (2 µM) | inactive: 0 | inactive: 0 | inactive: 0 | inactive: 0 | inactive: 0 | inactive: 0 | inactive: 0 | inactive: 0 | inactive: 0 | inactive: 0
18 | Nc1nccc(Oc2ccc(NC(=O)c3cn(COP(=O)(O)O)cc(-c4ccc(F)cc4)c3=O)cc2F)c1Cl (10 µM) | inactive: 0 | inactive: 0 | inactive: 0 | inactive: 0 | inactive: 0 | inactive: 0 | inactive: 0 | inactive: 0 | inactive: 0 | inactive: 0
19 | CC(C)=CC(=O)CCC(=O)N1CCN(Cc2cc3nc(-c4cccc5[nH]ncc45)nc(N4CCOCC4)c3s2)CC1 (10 µM) | inactive: 0 | inactive: 0 | inactive: 0 | inactive: 0 | inactive: 0 | inactive: 0 | inactive: 0 | inactive: 0 | inactive: 0 | active: 1
20 | O=c1cc(O)cc(/C=C/c2ccc(O)c(O)c2)o1 [Hispidin] (10 µM) | inactive: 0 | inactive: 0 | inactive: 0 | inactive: 0 | inactive: 0 | inactive: 0 | inactive: 0 | inactive: 0 | inactive: 0 | inactive: 0
21 | COc1cc(N2CCC(N3CCN(C)CC3)CC2)ccc1Nc1ncc(Cl)c(Nc2ccccc2P(C)(C)=O)n1 [Brigatinib] (2 µM) | inactive: 0 | inactive: 0 | inactive: 0 | inactive: 0 | inactive: 0 | inactive: 0 | inactive: 0 | inactive: 0 | inactive: 0 | inactive: 0
22 | COc1cc(S(C)(=O)=O)ccc1Nc1nc2ccc(-c3ccc(NC(=O)[C@H](C)c4ccc(F)cc4)cc3)cn2n1 [Empesertib] (10 µM) | inactive: 0 | inactive: 0 | inactive: 0 | inactive: 0 | inactive: 0 | inactive: 0 | inactive: 0 | inactive: 0 | inactive: 0 | inactive: 0
23 | C=C1C(=O)O[C@@H]2C[C@@]3(C)CCC[C@H](C)C3=C[C@H]12 [Alantolactone] (10 µM) | inactive: 0 | inactive: 0 | inactive: 0 | inactive: 0 | inactive: 0 | inactive: 0 | inactive: 0 | inactive: 0 | inactive: 0 | inactive: 0
24 | N#CC(c1ccnc(NCCc2cccnc2)n1)c1nc2ccccc2s1 (stereo not given) (10 µM) | inactive: 0 | inactive: 0 | inactive: 0 | inactive: 0 | inactive: 0 | inactive: 0 | inactive: 0 | inactive: 0 | inactive: 0 | active: 1
25 | Cc1ccc(NC(=S)NNc2c([N+](=O)[O-])cc(C(F)(F)F)cc2[N+](=O)[O-])cc1Cl (10 µM) | inactive: 0 | inactive: 0 | inactive: 0 | inactive: 0 | inactive: 0 | inactive: 0 | inactive: 0 | inactive: 0 | inactive: 0 | inactive: 0
26 | Fc1ccc(-c2nc(-c3c(F)cccc3F)[nH]c2-c2ccncc2)cc1 (10 µM) | inactive: 0 | inactive: 0 | inactive: 0 | inactive: 0 | inactive: 0 | inactive: 0 | inactive: 0 | inactive: 0 | inactive: 0 | inactive: 0
27 | CNC(=O)Nc1ccc(-c2cc(-c3ccnc(Nc4ccc(C)c(S(=O)(=O)N(C)C)c4)n3)ccn2)cc1 [hSMG-1 inhibitor 11e] (2.5 µM) | inactive: 0 | inactive: 0 | inactive: 0 | inactive: 0 | inactive: 0 | inactive: 0 | inactive: 0 | inactive: 0 | inactive: 0 | inactive: 0
28 | N[C@H](Cc1c[nH]c2ccccc12)C(=O)N/N=C/c1ccc2nccnc2c1 [Rhosin (hydrochloride)] (10 µM) | inactive: 0 | inactive: 0 | inactive: 0 | inactive: 0 | inactive: 0 | inactive: 0 | inactive: 0 | inactive: 0 | inactive: 0 | inactive: 0

Exported as a markdown table: entries from further up.

| Row | Compound | kinase-Nluc reporter destabilization hit call [1] | kinase-Nluc reporter destabilization hit call [2] | kinase-Nluc reporter destabilization hit call [3] | kinase-Nluc reporter destabilization hit call [4] | kinase-Nluc reporter destabilization hit call [5] | kinase-Nluc reporter destabilization hit call [6] | kinase-Nluc reporter destabilization hit call [7] | kinase-Nluc reporter destabilization hit call [8] | kinase-Nluc reporter destabilization hit call [9] | kinase-Nluc reporter destabilization hit call [10] |
| --- | --- | --- | --- | --- | --- | --- | --- | --- | --- | --- | --- |
| 6 | CC1=C2C(=O)O[C@@H](c3ccoc3)[C@]2(C)CCC1 [Fraxinellone] (10 µM) | inactive: 0 | inactive: 0 | inactive: 0 | inactive: 0 | inactive: 0 | inactive: 0 | inactive: 0 | inactive: 0 | inactive: 0 | inactive: 0 |
| 18 | Nc1nccc(Oc2ccc(NC(=O)c3cn(COP(=O)(O)O)cc(-c4ccc(F)cc4)c3=O)cc2F)c1Cl (10 µM) | inactive: 0 | inactive: 0 | inactive: 0 | inactive: 0 | inactive: 0 | inactive: 0 | inactive: 0 | inactive: 0 | inactive: 0 | inactive: 0 |

Reference: the supplement of paper PMC12823440, “Inhibitors supercharge kinase turnover through native proteolytic circuits” (Nature, 2025)
